Converted amounts (≈) assume the structure as drawn. At least one structure is not confirmed: it was looked up by name or label, or the drawing left a doubt.
Molecular target: Collagenase Type IV from Clostridium histolyticum
Test: Anti-collagenase activity (DQ gelatin fluorescence assay)
Assay type: biochemical
Settings: substrate DQ gelatin, read after 30 minutes

SMILES: C=C(C)[C@@H](CC=C(C)C)C[C@@]12C[C@@H](CC=C(C)C)C(C)(C)[C@@](CC=C(C)C)(C(=O)C(C(=O)c3ccc(O)c(O)c3)=C1O)C2=O [Garcinol]
- IC50 (anti-collagenase): 99.85 µg/mL (≈ 166 µM)
